The values that follow come from publication PMC6453936.

Protein sequences, listed by entry. Tags and fused reporters are not part of them. Lines headed by an entry give the natural chain unless they say otherwise; changes in a name come on top.
UniProt Q15075: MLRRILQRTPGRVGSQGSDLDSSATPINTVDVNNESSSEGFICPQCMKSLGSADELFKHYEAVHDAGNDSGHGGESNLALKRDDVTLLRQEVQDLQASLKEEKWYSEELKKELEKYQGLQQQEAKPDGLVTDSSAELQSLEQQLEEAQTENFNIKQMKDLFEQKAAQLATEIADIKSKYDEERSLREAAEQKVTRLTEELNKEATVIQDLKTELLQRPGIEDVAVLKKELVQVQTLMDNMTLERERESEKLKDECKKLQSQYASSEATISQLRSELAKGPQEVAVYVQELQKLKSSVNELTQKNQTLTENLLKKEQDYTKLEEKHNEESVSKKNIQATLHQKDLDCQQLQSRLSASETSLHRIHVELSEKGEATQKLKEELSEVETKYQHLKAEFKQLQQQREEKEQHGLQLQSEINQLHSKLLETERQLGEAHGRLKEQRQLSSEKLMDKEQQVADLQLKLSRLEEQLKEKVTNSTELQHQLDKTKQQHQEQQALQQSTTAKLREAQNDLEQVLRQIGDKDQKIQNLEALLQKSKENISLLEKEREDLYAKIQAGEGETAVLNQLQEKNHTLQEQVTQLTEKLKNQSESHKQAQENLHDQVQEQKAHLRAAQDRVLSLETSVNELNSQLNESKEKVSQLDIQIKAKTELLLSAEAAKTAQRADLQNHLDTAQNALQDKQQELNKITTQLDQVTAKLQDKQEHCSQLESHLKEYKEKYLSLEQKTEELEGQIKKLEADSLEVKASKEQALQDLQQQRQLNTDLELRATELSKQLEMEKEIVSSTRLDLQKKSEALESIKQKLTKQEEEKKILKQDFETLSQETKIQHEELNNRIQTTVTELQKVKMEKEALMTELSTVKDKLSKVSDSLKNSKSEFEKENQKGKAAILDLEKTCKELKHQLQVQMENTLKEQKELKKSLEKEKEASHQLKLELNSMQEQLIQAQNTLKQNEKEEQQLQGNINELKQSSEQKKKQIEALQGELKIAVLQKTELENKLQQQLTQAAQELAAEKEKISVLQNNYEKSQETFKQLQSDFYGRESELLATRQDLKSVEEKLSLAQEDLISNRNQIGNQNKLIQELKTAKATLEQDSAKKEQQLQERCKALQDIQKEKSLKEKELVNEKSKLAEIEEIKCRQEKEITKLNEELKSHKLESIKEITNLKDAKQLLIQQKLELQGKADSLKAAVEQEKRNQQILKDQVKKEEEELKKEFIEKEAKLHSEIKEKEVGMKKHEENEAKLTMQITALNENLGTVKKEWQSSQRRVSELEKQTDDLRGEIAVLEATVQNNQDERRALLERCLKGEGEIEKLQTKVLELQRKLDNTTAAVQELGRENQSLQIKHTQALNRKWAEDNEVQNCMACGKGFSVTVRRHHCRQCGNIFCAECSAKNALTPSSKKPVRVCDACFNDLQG
UniProt P29466: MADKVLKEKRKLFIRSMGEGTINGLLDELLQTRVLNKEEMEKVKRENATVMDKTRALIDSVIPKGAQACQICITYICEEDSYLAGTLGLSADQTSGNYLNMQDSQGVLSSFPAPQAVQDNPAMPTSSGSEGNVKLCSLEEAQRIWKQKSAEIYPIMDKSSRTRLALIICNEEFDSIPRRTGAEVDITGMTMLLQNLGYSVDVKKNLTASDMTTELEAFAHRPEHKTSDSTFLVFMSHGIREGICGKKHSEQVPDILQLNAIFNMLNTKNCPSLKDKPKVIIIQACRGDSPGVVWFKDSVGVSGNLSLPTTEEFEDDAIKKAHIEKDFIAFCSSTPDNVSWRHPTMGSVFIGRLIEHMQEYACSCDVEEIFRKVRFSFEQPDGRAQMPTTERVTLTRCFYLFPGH

No constants are given. Whether binding was seen depends on the method and setting. Binding seen in cells or lysates may run through a third protein. For some assays here: Binding can be weak; no strength is given.

Assay [1] has as its target early endosome autoantigen 1 (EEA1) (human (endogenous in THP-1)) (UniProt Q15075). The assay is described as follows: co-IP; as a1, but the THP-1 cells were stimulated with a caspase-1 inhibitor present.
For assay [2] the target is unchanged. Kind of assay: co-IP; anti-EEA1 (1.5 µg, 1 h, 4 °C), then protein-G-agarose beads, from cell supernatants of LPS-primed THP-1 macrophages after NLRP3 stimulation with hypotonicity; normal mouse IgG1 as control; blot for caspase-1 p10.

On to “p10 subunit of active caspase-1 (from UniProt P29466) (enzyme)”, for which the figures for the binding result in assay [1] and in assay [2] were “no binding (only with a caspase-1 inhibitor)” and “binds”, respectively.
